The supplement of paper PMC10849652
The list shows a part of the results.

The chains behind the UniProt entries cited, without tags or fusion partners. Where a name states a change or a piece, a line headed by the entry shows the natural chain unless it says otherwise.
UniProt Q06413, whole entry, looked up: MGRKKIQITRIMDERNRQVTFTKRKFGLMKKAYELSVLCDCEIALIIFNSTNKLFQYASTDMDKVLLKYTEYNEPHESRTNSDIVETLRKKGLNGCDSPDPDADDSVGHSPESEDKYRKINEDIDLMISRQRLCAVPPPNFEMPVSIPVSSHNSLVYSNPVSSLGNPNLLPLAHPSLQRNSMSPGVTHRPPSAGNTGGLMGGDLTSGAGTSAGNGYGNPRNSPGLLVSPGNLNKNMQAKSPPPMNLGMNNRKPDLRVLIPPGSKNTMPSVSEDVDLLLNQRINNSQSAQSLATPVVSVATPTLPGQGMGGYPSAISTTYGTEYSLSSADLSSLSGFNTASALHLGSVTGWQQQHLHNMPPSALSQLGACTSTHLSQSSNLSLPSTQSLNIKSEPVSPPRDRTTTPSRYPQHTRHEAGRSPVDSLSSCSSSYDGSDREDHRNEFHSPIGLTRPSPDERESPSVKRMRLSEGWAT
UniProt P56270: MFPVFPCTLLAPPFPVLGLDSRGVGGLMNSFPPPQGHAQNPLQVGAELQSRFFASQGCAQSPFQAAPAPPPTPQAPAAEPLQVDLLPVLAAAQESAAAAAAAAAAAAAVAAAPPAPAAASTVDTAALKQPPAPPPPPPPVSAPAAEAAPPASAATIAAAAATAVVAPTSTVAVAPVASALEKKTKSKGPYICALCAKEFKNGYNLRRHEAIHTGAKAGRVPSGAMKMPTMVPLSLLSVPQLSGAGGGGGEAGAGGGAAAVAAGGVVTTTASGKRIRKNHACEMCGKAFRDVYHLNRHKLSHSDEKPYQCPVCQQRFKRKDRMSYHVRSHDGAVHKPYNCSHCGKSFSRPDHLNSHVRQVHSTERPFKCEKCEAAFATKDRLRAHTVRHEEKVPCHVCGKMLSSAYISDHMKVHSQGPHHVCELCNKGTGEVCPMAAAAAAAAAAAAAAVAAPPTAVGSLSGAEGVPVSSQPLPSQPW
UniProt Q10469: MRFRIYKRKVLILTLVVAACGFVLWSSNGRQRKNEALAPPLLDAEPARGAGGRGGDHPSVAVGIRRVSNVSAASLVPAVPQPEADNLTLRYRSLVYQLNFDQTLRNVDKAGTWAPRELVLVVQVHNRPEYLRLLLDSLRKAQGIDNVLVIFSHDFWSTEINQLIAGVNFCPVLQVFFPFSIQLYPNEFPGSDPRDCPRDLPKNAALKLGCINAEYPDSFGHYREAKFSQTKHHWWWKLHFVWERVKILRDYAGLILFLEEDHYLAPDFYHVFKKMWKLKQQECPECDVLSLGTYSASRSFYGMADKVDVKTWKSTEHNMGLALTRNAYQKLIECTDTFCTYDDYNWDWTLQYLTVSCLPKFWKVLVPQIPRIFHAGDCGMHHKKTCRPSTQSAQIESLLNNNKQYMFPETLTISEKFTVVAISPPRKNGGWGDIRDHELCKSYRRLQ
UniProt P10620: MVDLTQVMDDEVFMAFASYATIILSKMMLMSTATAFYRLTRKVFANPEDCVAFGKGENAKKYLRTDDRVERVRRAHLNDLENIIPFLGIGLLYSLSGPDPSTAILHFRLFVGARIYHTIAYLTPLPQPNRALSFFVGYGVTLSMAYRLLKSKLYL
UniProt Q9BQP7: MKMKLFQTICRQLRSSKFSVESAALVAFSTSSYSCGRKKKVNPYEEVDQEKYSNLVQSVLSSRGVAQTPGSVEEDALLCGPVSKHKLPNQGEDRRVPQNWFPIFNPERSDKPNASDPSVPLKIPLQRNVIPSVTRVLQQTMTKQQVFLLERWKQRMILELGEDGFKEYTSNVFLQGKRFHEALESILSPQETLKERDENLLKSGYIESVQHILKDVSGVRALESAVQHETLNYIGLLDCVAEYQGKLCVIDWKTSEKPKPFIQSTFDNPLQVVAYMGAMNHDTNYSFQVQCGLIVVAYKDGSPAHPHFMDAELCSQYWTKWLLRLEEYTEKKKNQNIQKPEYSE
UniProt Q9ULC4: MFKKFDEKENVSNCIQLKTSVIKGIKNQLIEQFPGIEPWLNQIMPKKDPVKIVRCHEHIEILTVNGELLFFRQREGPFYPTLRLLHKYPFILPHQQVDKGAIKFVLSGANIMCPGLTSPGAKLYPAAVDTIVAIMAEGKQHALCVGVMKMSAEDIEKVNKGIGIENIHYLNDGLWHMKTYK
UniProt O14880: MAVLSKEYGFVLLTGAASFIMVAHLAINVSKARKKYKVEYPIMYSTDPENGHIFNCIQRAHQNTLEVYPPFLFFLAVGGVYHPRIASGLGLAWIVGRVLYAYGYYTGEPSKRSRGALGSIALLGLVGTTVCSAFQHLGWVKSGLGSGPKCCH
UniProt Q8NI22: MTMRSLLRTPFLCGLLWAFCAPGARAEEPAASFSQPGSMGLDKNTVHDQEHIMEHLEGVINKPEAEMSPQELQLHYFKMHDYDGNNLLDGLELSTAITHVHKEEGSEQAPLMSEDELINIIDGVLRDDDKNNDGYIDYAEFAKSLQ
UniProt Q9NWR8: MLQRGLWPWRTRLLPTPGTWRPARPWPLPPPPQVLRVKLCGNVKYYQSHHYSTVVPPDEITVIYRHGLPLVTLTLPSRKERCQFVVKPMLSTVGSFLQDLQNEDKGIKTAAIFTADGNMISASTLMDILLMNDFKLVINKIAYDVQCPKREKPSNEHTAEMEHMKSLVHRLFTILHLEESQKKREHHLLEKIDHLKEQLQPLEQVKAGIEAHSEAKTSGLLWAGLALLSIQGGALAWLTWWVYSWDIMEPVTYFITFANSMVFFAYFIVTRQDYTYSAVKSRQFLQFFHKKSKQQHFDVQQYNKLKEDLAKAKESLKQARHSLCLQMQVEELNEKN
UniProt Q8IWA4: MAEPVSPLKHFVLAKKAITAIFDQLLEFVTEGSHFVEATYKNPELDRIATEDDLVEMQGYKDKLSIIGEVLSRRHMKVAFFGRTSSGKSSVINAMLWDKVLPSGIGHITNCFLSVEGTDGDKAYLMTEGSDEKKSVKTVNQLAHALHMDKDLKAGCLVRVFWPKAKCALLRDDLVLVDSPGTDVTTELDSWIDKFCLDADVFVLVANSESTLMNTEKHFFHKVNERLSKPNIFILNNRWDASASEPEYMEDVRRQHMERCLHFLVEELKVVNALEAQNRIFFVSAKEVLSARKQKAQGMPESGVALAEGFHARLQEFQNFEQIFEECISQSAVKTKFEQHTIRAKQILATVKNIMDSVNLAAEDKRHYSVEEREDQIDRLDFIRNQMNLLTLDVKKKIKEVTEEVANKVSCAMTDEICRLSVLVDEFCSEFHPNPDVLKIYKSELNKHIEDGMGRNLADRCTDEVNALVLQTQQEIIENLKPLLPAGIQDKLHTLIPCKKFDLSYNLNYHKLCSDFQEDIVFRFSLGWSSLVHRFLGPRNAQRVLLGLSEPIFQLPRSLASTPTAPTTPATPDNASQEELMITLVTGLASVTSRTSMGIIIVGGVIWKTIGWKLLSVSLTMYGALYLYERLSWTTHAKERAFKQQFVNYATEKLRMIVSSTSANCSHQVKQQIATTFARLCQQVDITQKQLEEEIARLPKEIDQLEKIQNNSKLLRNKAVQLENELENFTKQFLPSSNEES
UniProt P50579: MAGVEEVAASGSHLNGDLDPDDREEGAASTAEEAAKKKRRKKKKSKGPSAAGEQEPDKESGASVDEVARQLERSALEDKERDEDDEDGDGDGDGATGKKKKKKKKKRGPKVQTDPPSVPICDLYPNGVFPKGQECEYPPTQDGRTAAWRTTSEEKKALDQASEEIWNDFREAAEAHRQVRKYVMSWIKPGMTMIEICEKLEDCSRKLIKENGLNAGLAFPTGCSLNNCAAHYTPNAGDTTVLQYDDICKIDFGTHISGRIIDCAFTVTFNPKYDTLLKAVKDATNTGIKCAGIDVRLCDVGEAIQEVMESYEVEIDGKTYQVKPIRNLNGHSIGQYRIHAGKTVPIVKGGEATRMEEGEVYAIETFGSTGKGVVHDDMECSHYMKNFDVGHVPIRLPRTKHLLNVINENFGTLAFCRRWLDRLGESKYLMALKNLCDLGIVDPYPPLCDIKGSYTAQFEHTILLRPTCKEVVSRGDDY
UniProt Q9H8H3: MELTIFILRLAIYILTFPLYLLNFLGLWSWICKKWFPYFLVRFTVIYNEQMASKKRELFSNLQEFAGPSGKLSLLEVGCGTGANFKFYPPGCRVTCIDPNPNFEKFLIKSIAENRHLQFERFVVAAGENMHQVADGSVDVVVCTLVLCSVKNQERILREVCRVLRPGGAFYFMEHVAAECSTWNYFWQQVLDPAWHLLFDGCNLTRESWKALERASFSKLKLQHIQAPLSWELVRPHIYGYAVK
UniProt Q96RN5: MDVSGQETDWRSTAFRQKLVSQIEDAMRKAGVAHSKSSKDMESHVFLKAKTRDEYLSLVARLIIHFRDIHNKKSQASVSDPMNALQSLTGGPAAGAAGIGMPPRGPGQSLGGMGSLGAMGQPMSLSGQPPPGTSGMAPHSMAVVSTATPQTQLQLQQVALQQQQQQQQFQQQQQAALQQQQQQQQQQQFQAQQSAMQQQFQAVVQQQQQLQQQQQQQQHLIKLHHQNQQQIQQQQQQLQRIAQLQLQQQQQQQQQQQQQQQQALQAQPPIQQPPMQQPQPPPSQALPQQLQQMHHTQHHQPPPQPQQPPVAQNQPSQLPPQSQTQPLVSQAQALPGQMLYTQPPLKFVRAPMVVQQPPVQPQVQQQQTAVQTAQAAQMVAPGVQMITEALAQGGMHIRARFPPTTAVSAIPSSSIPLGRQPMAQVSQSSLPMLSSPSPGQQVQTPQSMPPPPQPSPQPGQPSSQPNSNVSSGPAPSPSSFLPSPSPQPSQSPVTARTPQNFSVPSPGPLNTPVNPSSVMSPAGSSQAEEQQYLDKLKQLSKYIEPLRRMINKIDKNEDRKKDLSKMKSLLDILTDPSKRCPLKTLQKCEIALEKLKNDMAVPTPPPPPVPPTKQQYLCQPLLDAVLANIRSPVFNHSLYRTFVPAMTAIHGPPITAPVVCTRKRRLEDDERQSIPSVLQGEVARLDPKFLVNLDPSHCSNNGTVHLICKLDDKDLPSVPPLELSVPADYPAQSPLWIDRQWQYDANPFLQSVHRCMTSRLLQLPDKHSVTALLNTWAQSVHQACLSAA
UniProt Q14728: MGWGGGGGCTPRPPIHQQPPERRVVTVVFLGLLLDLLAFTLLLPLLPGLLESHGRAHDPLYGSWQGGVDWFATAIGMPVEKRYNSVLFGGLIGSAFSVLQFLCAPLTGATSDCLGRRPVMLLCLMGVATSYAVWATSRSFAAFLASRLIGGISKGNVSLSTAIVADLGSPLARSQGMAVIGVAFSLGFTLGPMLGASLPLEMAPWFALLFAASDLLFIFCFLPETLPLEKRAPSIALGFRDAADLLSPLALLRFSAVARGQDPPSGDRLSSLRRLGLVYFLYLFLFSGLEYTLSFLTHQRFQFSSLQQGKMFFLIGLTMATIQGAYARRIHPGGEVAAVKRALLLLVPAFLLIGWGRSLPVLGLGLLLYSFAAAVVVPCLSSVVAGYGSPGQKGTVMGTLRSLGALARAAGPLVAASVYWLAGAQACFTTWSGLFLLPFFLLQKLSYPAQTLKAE
UniProt Q7Z434: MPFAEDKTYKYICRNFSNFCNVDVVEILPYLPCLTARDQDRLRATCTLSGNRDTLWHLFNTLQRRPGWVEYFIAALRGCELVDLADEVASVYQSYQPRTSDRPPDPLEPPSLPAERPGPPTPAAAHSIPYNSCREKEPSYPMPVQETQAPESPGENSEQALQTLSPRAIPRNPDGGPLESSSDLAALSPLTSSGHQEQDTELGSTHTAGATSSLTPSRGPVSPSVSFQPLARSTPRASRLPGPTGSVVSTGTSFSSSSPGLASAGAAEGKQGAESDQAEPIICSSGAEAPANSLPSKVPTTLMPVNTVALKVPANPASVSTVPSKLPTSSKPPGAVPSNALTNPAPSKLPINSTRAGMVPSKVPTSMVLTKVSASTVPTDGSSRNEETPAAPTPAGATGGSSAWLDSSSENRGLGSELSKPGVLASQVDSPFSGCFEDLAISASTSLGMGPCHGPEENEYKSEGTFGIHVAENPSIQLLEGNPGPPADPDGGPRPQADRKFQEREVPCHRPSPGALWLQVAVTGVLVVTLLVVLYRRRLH
UniProt Q96PE7: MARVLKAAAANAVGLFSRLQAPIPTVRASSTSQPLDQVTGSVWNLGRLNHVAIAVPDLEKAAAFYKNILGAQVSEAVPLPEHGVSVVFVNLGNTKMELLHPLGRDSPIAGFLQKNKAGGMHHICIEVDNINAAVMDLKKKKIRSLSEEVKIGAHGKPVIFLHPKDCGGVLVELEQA
UniProt Q6N075: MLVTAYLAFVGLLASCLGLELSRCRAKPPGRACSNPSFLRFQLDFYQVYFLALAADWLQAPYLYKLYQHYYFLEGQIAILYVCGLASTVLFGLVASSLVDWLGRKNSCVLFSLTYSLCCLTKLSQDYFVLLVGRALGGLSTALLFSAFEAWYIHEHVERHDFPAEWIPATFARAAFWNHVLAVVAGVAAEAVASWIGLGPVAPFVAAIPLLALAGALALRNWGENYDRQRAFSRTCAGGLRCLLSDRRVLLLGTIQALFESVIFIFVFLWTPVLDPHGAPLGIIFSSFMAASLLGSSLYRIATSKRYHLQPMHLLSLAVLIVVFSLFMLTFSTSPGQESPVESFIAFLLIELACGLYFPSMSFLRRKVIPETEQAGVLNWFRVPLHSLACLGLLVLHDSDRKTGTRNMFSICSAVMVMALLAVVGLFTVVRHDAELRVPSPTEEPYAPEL

What was measured:
Assay in all cases: log2 fold change, soluble protein after heating vs DMSO (PISA); higher = thermal stabilisation; K562 cells, 10 uM, 30 min; active = over 0.2 and 3.5 SD of the protein, either way, in both replicates (recomputed)
erlotinib = compound: C#Cc1cccc(Nc2ncnc3cc(OCCOC)c(OCCOC)cc23)c1 [erlotinib]
Outline: (§1)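 Values are thermal stability changes relative to control samples and are taken from duplicates. They are stated as log2 fold changes. Before quantification by TMTpro 16plex LC-MS/MS with equalised channel sums, K562 cells at 2×10^6 cells/mL were treated with 10 μM compound for 30 min, heated in aliquots for 3 min across 48°C-58°C, pooled, extracted in PBS with 0.5% NP-40 at 4°C, and centrifuged at 21,000xg for 90 min to give the soluble supernatant.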

[1] = compound: C/C(=N\NC(=O)C1=CC(=CC=C1)S(=O)(=O)N2CCOCC2)/C3=C(C=CC(=C3)Cl)O
Outline: as §1

[2] = compound: C1=CC(=C(C=C1Cl)C2=NC3=NC=CN=C3C(=N2)NC4=CC=NC=C4)F
Outline: as §1

[3] = compound: C1=CC(=CC=C1C2=NC3=C(N2)C=C(C=C3)C(=O)N)OC4=CC=C(C=C4)Cl
Outline: as §1

[4] = compound: C1=CC2=C(C=CC(=C2)/C=C\3/C(=O)NC(=NCC4=CC=CS4)S3)N=C1
Outline: as §1

[5] = compound: C1=CC2=NC=CN=C2C=C1/C=C/3\C(=O)NC(=O)S3
Outline: as §1

[6] = compound: C1=CC=C(C=C1)C2=NC(=C(N2)C3=CC=NC=C3)C4=CC(=C(C=C4)Cl)O
Outline: as §1

[7] = compound: C1=CC=C2C(=C1)C3=NNC4=CC=CC(=C43)C2=O
Outline: as §1

[8] = compound: C1CCN(C1)C(=O)NC2=CC=CC(=C2)NC3=NC=C(C(=N3)NCCC4=CN=CN4)Br
Outline: as §1

[9] = compound: C1CN(CCC1(CC2=CC=C(C=C2)Cl)N)C3=NC=NC4=C3C=CN4
Outline: as §1

Measured: log2 fold change

MEF2C isoform 5 (UniProt Q06413)
inactive: erlotinib -0.005 | [1] -0.05 | [2] 0.032 | [3] -0.041 | [4] 0.079 | [5] 0.028 | [6] -0.045 | [7] -0.027 | [8] 0.037 | [9] 0.027

MAZ isoform 2 (UniProt P56270)
inactive: erlotinib -0.102 | [1] -0.162 | [2] -0.25 | [3] -0.02 | [4] -0.075 | [5] -0.083 | [6] 0.02 | [7] 0.058 | [8] -0.034 | [9] -0.027

MGAT2 (UniProt Q10469)
inactive: erlotinib 0.03 | [1] 0.117 | [2] 0.088 | [3] 0 | [4] 0.003 | [5] 0.045 | [6] 0.036 | [7] 0.052 | [8] -0.057 | [9] 0.007

MED14 (UniProt O60244)
inactive: erlotinib -0.042 | [1] 0.049 | [2] -0.155 | [3] 0.059 | [4] -0.013 | [5] 0.102 | [6] -0.043 | [7] 0.023 | [8] -0.039 | [9] -0.02

MCM5 (UniProt P33992)
inactive: erlotinib 0.004 | [1] 0.04 | [2] 0.065 | [3] -0.005 | [4] -0.006 | [5] 0.007 | [6] 0.078 | [7] 0.011 | [8] -0.028 | [9] -0.011

MEPCE (UniProt Q7L2J0)
inactive: erlotinib 0.063 | [1] 0.064 | [2] -0.022 | [3] -0.002 | [4] 0.039 | [5] -0.01 | [6] 0.103 | [7] 0.024 | [8] -0.049 | [9] -0.047

MGST1 (UniProt P10620)
inactive: erlotinib -0.032 | [1] -0.037 | [2] 0.063 | [3] 0.021 | [4] 0.02 | [5] 0.038 | [6] 0.024 | [7] -0.057 | [8] -0.004 | [9] -0.049

METTL18 (UniProt O95568)
inactive: erlotinib -0.042 | [1] -0.037 | [2] -0.08 | [3] 0.027 | [4] 0.038 | [5] 0.046 | [6] -0.039 | [7] -0.06 | [8] 0.028 | [9] 0.078

MGME1 (UniProt Q9BQP7)
inactive: erlotinib 0.017 | [1] 0.077 | [2] 0.054 | [3] 0.023 | [4] -0.026 | [5] 0.038 | [6] 0.035 | [7] 0.019 | [8] -0.005 | [9] 0.013

MCTS1 isoform 3 (UniProt Q9ULC4)
inactive: erlotinib -0.027 | [1] 0.002 | [2] 0.015 | [3] 0.006 | [4] -0.03 | [5] 0.002 | [6] 0.012 | [7] 0 | [8] 0.012 | [9] 0.061

MGST3 (UniProt O14880)
inactive: erlotinib -0.025 | [1] -0.03 | [2] 0.013 | [3] 0.003 | [4] 0.006 | [5] 0.041 | [6] -0.022 | [7] -0.023 | [8] 0.019 | [9] 0.016

METAP1 (UniProt P53582)
inactive: erlotinib 0.036 | [1] -0.049 | [2] 0.025 | [3] -0.017 | [4] 0.027 | [5] 0.095 | [6] -0.003 | [7] -0.013 | [8] 0.005 | [9] 0.069

MCFD2 (UniProt Q8NI22)
inactive: erlotinib -0.113 | [1] -0.046 | [2] 0.08 | [3] 0.03 | [4] 0.035 | [5] 0.212 | [6] 0.07 | [7] 0.091 | [8] -0.029 | [9] -0.234

MIA2 (UniProt Q96PC5)
inactive: erlotinib 0.01 | [1] 0.044 | [2] 0.04 | [3] -0.044 | [4] -0.033 | [5] 0.035 | [6] 0.021 | [7] -0.092 | [8] 0.003 | [9] 0.041

MCUB (UniProt Q9NWR8)
inactive: erlotinib -0.01 | [1] 0.021 | [2] 0.063 | [3] 0.039 | [4] 0.116 | [5] -0.237 | [6] 0.054 | [7] 0.018 | [8] 0.044 | [9] 0.031

MFN1 (UniProt Q8IWA4)
inactive: erlotinib -0.002 | [1] -0.026 | [2] 0.042 | [3] 0.001 | [4] 0.07 | [5] 0.347 | [6] -0.016 | [7] -0.015 | [8] 0.025 | [9] -0.039

METTL3 (UniProt Q86U44)
inactive: erlotinib -0.015 | [1] 0.053 | [2] 0.088 | [3] 0.039 | [4] 0.035 | [5] 0.028 | [6] -0.022 | [7] 0.006 | [8] -0.041 | [9] 0.06

MDC1 (UniProt Q14676)
inactive: erlotinib 0.056 | [1] -0.284 | [2] -0.184 | [3] 0.025 | [4] 0 | [5] 0.057 | [6] 0.177 | [7] -0.094 | [8] -0.139 | [9] 0.072

METAP2 (UniProt P50579)
inactive: erlotinib 0 | [1] -0.036 | [2] -0.029 | [3] 0.036 | [4] 0.004 | [5] -0.024 | [6] 0.057 | [7] -0.026 | [8] -0.019 | [9] 0.03

MCM3 isoform 2 (UniProt P25205)
inactive: erlotinib -0.018 | [1] 0.027 | [2] 0.079 | [3] 0.007 | [4] -0.016 | [5] -0.004 | [6] 0.023 | [7] 0.016 | [8] -0.012 | [9] -0.012

METTL7A (UniProt Q9H8H3)
inactive: erlotinib 0.01 | [1] 0.041 | [2] 0.054 | [3] -0.003 | [4] 0.036 | [5] -0.029 | [6] 0.045 | [7] -0.009 | [8] -0.039 | [9] 0.047

METAP1D (UniProt Q6UB28)
inactive: erlotinib -0.061 | [1] -0.307 | [2] -0.02 | [3] 0.025 | [4] -0.004 | [5] -0.014 | [6] 0.005 | [7] -0.002 | [8] -0.018 | [9] 0.033

MED8 isoform 2 (UniProt Q96G25)
inactive: erlotinib 0.017 | [1] -0.19 | [2] -0.056 | [3] 0.035 | [4] -0.031 | [5] 0.152 | [6] -0.153 | [7] -0.196

MED15 (UniProt Q96RN5)
inactive: erlotinib -0.024 | [1] 0.002 | [2] 0 | [3] 0.011 | [4] 0.055 | [5] 0.048 | [6] -0.073 | [7] -0.015 | [8] 0.025 | [9] -0.027

MGAT1 (UniProt P26572)
inactive: erlotinib -0.092 | [1] 0.173 | [2] -0.033 | [3] 0.021 | [4] 0.029 | [5] 0.021 | [6] -0.039 | [7] 0.007 | [8] -0.031 | [9] 0.012

MFSD10 (UniProt Q14728)
inactive: erlotinib -0.023 | [1] 0.084 | [2] 0.08 | [3] 0.061 | [4] -0.018 | [5] 0.055 | [6] 0.078 | [7] -0.018 | [8] -0.046 | [9] -0.027

MED20 (UniProt Q9H944)
inactive: erlotinib 0.039 | [1] 0.102 | [2] 0.043 | [3] 0.02 | [4] 0.072 | [5] 0.032 | [6] 0.033 | [7] 0.007 | [8] -0.014 | [9] 0.069

MAVS (UniProt Q7Z434)
inactive: erlotinib 0.04 | [1] 0.003 | [2] 0.061 | [3] -0.03 | [4] 0.006 | [5] 0.031 | [6] 0.024 | [7] 0.002 | [8] -0.014 | [9] 0.014

MCEE (UniProt Q96PE7)
inactive: erlotinib 0.005 | [1] 0.021 | [2] 0.014 | [3] -0.052 | [4] 0.058 | [5] 0.022 | [6] -0.021 | [7] -0.053 | [8] -0.025 | [9] -0.023

MFSD5 isoform 2 (UniProt Q6N075)
inactive: erlotinib 0.147 | [1] 0.057 | [2] 0.041 | [3] 0.115 | [4] -0.061 | [5] 0.038 | [6] -0.144 | [7] 0.109 | [8] 0.014 | [9] 0.034

Retrieved one by one from the entries so far (2):
MCEE (UniProt Q96PE7)
inactive: erlotinib 0.005 | [1] 0.021 | [2] 0.014 | [3] -0.052 | [4] 0.058 | [5] 0.022 | [6] -0.021 | [7] -0.053 | [8] -0.025 | [9] -0.023

MEPCE (UniProt Q7L2J0)
inactive: erlotinib 0.063 | [1] 0.064 | [2] -0.022 | [3] -0.002 | [4] 0.039 | [5] -0.01 | [6] 0.103 | [7] 0.024 | [8] -0.049 | [9] -0.047
